Data from US20090169546A1.
Results are given in words; binding and its absence hold for the method and conditions named. Some binding calls cover weakened binding; strength is not graded here.

Protein sequences, listed by entry. Tags and fused reporters are not part of them. Residues count along the entry.
UniProt Q62151, residues 24-342: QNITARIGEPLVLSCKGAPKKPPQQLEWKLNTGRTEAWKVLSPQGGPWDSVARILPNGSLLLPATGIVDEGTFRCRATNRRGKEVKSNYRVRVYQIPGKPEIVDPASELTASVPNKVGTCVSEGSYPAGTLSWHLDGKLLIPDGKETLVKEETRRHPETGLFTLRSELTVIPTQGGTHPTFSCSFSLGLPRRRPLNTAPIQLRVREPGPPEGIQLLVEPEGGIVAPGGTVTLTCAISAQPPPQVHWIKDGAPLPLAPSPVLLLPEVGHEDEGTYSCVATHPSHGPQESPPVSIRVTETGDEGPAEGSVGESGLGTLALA
UniProt P10103, residues 2-215: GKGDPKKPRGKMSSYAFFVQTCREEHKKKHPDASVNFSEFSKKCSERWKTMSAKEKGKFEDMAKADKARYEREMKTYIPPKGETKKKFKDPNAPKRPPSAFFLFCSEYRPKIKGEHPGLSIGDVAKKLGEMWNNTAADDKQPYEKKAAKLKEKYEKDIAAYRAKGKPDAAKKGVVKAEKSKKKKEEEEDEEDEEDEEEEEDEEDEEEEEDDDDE

Assays:
[1] = target: Mouse RAGE/Fc (mouse) (UniProt Q62151); assay: ELISA on coated RAGE/Fc; HMGB1 in complex with biotin labeled CpG
[2] = target: Mouse RAGE/Fc (mouse) (UniProt Q62151); assay: ELISA on coated RAGE/Fc, HMGB1 alone or in complex with CpG-A, FIG. 35
[3] = target: Mouse RAGE/Fc (mouse) (UniProt Q62151); assay: ELISA on coated RAGE/Fc

binding [1]: binds | binding [2]: binds | binding [3]: binds
Substance: HMG1 purified from calf (bovine) thymus (from UniProt P10103 2-215) (ligand)
